The experiment relates to P388 leukemia ip, CD2F1 mice, survival T/C. The experiment is described as follows: NCI In Vivo Anticancer Drug Screen. Data for tumor model P388 Leukemia (intraperitoneal) in CD2F1 (CDF1) mice. The following applies: T/C endpoint: median survival time, higher T/C = longer survival.
Where [1] appears, read: dose: 200.0 mg/kg/injection, schedule: Q01DX005 (ip), vehicle: Klucel (hydroxypropylcellulose) (HPC).
Setting [2] is: dose: 6.25 mg/kg/injection, schedule: Q01DX009 (ip), vehicle: saline.
The mark [3] stands for this setting: dose: 12.5 mg/kg/injection, schedule: Q01DX009 (ip), vehicle: saline.
Where [4] appears, read: dose: 25.0 mg/kg/injection, schedule: Q01DX001 (ip), vehicle: saline.
The mark [5] stands for this setting: dose: 200.0 mg/kg/injection, schedule: Q01DX005 (ip), vehicle: saline with Tween-80.
Where [6] appears, read: dose: 100.0 mg/kg/injection, schedule: Q01DX005 (ip), vehicle: Klucel (hydroxypropylcellulose) (HPC).
Where [7] appears, read: dose: 50.0 mg/kg/injection, schedule: Q01DX009 (ip), vehicle: saline with Tween-80.
Setting [8] is: dose: 100.0 mg/kg/injection, schedule: Q01DX009 (ip), vehicle: saline with Tween-80.
Where [9] appears, read: dose: 240.0 mg/kg/injection, schedule: Q01DX005 (ip), vehicle: Klucel (hydroxypropylcellulose) (HPC).

The list is a part of this screen's results and no random one: it gathers tests that were run many times, whatever their T/C, doses with no T/C, and many T/C values between a quarter and a half above the control. Other doses and runs of a compound stand elsewhere. T/C: endpoint of the treated group in % of that of the vehicle group. Some doses have a count of surviving animals in place of a T/C: the source holds a T/C of zero for them, seemingly a mark for toxic or unscored doses. Some survivor counts are full or nearly so, which does not show that the dose was tolerated: survival well below the control is almost never listed, so the zero probably covers shortened survival too. Counts of survivors are from the toxicity check (mostly the fifth day) where no day follows; animals may have died later. Schedules are NCI's codes, read here as Q, the interval in days (D) or hours (H), X, the number of doses. Some doses were run more than once; the results are listed from low to high. Where survival is the endpoint, the PubChem record calls one and a half times the control and up active, and a quarter to a half above the control has no call in these data; cut-offs in other NCI protocols can differ. Some T/C values are followed by the survivors on the day toxicity was checked, most often the fifth; where none is given, no animal had died by that day.

Consider `CNC(=O)N(N=O)c1[nH]c(=O)ncc1Cl`, for which the survivor count (dose: 240.0 mg/kg/injection, schedule: Q01DX005 (ip), vehicle: saline with Tween-80) was 3 of 6.

Regarding `O=C1c2ccccc2C(=O)N1OCc1csc(-c2ccccc2)n1`, under setting [1], the survivor count was 5 of 6.

Regarding `O=C1C(F)=C(N2CC2)C(=O)C(F)=C1N1CC1`, the T/C is, setting by setting: (dose: 1.56 mg/kg/injection, schedule: Q01DX009 (ip), vehicle: saline) 136 % of control; (dose: 3.12 mg/kg/injection, schedule: Q01DX009 (ip), vehicle: saline) 130 % of control; under setting [2], 141 % of control [5 of 6 alive]. For the same compound, the survivor count by setting is: under setting [3], 4 of 6; (dose: 25.0 mg/kg/injection, schedule: Q01DX009 (ip), vehicle: saline) 0 of 6.

In the case of `CC1CCC[P+](CI)(c2ccccc2)CC1` (stereo not drawn), the survivor count reads like this: (dose: 100.0 mg/kg/injection, schedule: Q04DX002 (ip), vehicle: saline with Tween-80) 1 of 6; (dose: 200.0 mg/kg/injection, schedule: Q04DX002 (ip), vehicle: saline with Tween-80) 0 of 6; (dose: 400.0 mg/kg/injection, schedule: Q04DX002 (ip), vehicle: saline with Tween-80) 0 of 6.

Take `CC1C[P+](c2ccccc2)(c2ccccc2)Cc2ccccc21` (stereo not drawn): the survivor count (dose: 12.5 mg/kg/injection, schedule: Q01DX001 (ip), vehicle: saline) was 2 of 6; the survivor count under setting [4] is listed as 0 of 6, 1 of 6, 3 of 6; the survivor count (dose: 50.0 mg/kg/injection, schedule: Q01DX001 (ip), vehicle: saline) was 0 of 6; the survivor count (dose: 100.0 mg/kg/injection, schedule: Q01DX001 (ip), vehicle: saline) was 0 of 6 and 1 of 6; the survivor count (dose: 200.0 mg/kg/injection, schedule: Q01DX001 (ip), vehicle: saline) is 0 of 6; the survivor count (dose: 400.0 mg/kg/injection, schedule: Q01DX001 (ip), vehicle: saline) is reported as 0 of 6. For the same compound, the T/C under setting [4] was 155 % of control.

Consider `Cc1ccc(S(=O)(=O)Nc2nnc(-c3coc4ccc(C)cc4c3=O)s2)cc1`, for which, under setting [5], the survivor count is recorded as 6 of 6.

For `CC(C)c1ccc(/C=N\NC(=S)N/N=C\c2ccc(C(C)C)cc2)cc1`, the survivor count is reported as 6 of 6 (dose: 25.0 mg/kg/injection, schedule: Q01DX009 (ip), vehicle: Klucel (hydroxypropylcellulose) (HPC)) and 6 of 6 (dose: 50.0 mg/kg/injection, schedule: Q01DX009 (ip), vehicle: Klucel (hydroxypropylcellulose) (HPC)).

Turning to `C/C=C/C=C\C=C/C(O)CC(OP(=O)(O)O)C(C)(O)/C=C/C1CC=CC(=O)O1` (stereo not drawn), the T/C is 135 % of control (dose: 0.38 mg/kg/injection, schedule: Q01DX005 (ip), vehicle: water); 135 % of control (dose: 0.75 mg/kg/injection, schedule: Q01DX005 (ip), vehicle: water); 138 % of control (dose: 1.5 mg/kg/injection, schedule: Q01DX005 (ip), vehicle: water); 130 and 148 % of control (dose: 3.0 mg/kg/injection, schedule: Q01DX005 (ip), vehicle: water); 140 % of control (dose: 3.12 mg/kg/injection, schedule: Q01DX005 (ip), vehicle: water); 139 % of control (dose: 6.0 mg/kg/injection, schedule: Q01DX005 (ip), vehicle: water). Besides, the survivor count (dose: 6.25 mg/kg/injection, schedule: Q01DX005 (ip), vehicle: water) is 0 of 6; the survivor count (dose: 12.5 mg/kg/injection, schedule: Q01DX005 (ip), vehicle: water) is given as 0 of 6; the survivor count (dose: 25.0 mg/kg/injection, schedule: Q01DX005 (ip), vehicle: water) is on record as 0 of 6; the survivor count (dose: 50.0 mg/kg/injection, schedule: Q01DX005 (ip), vehicle: water) is on record as 0 of 6.

In the case of `O=C1OC2(CCCC2)OC(=O)C1=C/C=C/c1ccc([N+](=O)[O-])o1`, the survivor count (dose: 800.0 mg/kg/injection, schedule: Q04DX003 (ip), vehicle: saline with Tween-80) is 3 of 6.

Take `N#CC(=S)N(C(=O)c1ccc(Cl)cc1)c1ccccc1Cl`: the survivor count (dose: 240.0 mg/kg/injection, schedule: Q01DX005 (ip), vehicle: Klucel + Tween-80) was 2 of 6.

For the compound `CNc1ncnc2ccc(Cl)cc12`, the survivor count (dose: 200.0 mg/kg/injection, schedule: Q01DX009 (ip), vehicle: Klucel (hydroxypropylcellulose) (HPC)) is on record as 2 of 6.

On to `CC(C)C1CC2CCC3C(C)(C(=O)O)CCCC3(C)C2CC1CO` (stereo not drawn), for which, for the setting “dose: 400.0 mg/kg/injection, schedule: Q04DX003 (ip), vehicle: saline with Tween-80”, the survivor count was 6 of 6.

Regarding `CC(C)C(N)C(=O)Nc1nncs1` (stereo not drawn), the T/C is, setting by setting: (dose: 100.0 mg/kg/injection, schedule: Q04DX002 (ip), vehicle: saline) 127 % of control; (dose: 200.0 mg/kg/injection, schedule: Q04DX002 (ip), vehicle: saline) 128 % of control.

As to `COC1=CC(=O)C(C2OC(=O)C(Cl)=C2Cl)=CC1=O` (stereo not drawn), under setting [5], the survivor count was 2 of 6.

As to `CN=C(NCCCOC)c1ccc(NC(=O)Nc2ccc(NC(=O)Nc3ccc(C(=NC)NCCCOC)cc3)cc2)cc1`, under “dose: 25.0 mg/kg/injection, schedule: Q01DX005 (ip), vehicle: Klucel (hydroxypropylcellulose) (HPC)”, the T/C was 131 % of control. The survivor count under setting [6] was 6 of 6 and the survivor count under setting [1] is 0 of 6.

For the compound `CC1(C)CO[Se](=O)OC1`, the survivor count by setting is: under setting [2], 2 of 6; under setting [3], 0 of 6.

As for `CCCCN1COCO[C@H]2CCC[C@@H]21`, for the setting “dose: 400.0 mg/kg/injection, schedule: Q04DX002 (ip), vehicle: Klucel (hydroxypropylcellulose) (HPC)”, the survivor count is 1 of 6.

As to `O=C(OC1(c2nccc3ccccc23)CCN(CCc2ccccc2)CC1)c1ccccc1`, the survivor count by setting is: under setting [7], 6 of 6; under setting [8], 6 of 6; (dose: 200.0 mg/kg/injection, schedule: Q01DX009 (ip), vehicle: saline with Tween-80) 5 of 6.

With `COC1=C(N=[N+]=[N-])C(=O)c2ncccc2C1=O`, the survivor count (dose: 6.25 mg/kg/injection, schedule: Q01DX009 (ip), vehicle: saline with Tween-80) is reported as 2 of 6; the survivor count (dose: 10.0 mg/kg/injection, schedule: Q01DX009 (ip), vehicle: DMSO) is listed as 2 of 6; the survivor count (dose: 12.5 mg/kg/injection, schedule: Q01DX009 (ip), vehicle: saline with Tween-80) is on record as 1 of 6; the survivor count (dose: 25.0 mg/kg/injection, schedule: Q01DX009 (ip), vehicle: saline with Tween-80) is reported as 0 of 6; the survivor count under setting [7] is given as 0 of 6; the survivor count under setting [8] is given as 0 of 6.

As to `c1ccc(-c2cnc3cccnc3n2)cc1`, the survivor count under setting [9] was 3 of 6.

For the compound `Cc1cc(Cl)c2cc3c(cc2n1)CCCC3`, the survivor count under setting [9] was 0 of 6.

For the compound `CCN(CC)CCNc1ccc(COC(C)=O)c2sc3ccccc3c(=O)c12`, the T/C reads like this: (dose: 12.5 mg/kg/injection, schedule: Q01DX005 (ip), vehicle: saline with Tween-80) 129 % of control; (dose: 25.0 mg/kg/injection, schedule: Q01DX005 (ip), vehicle: saline with Tween-80) 125 and 145 % of control. In addition, the survivor count (dose: 50.0 mg/kg/injection, schedule: Q01DX005 (ip), vehicle: saline with Tween-80) is listed as 5 of 6.

In the case of `C[CH2][Sn]([CH2]C)([CH2]C)[NH]S(=O)(=O)c1ccc(C)cc1`, the survivor count was 5 of 6 (dose: 6.25 mg/kg/injection, schedule: Q01DX009 (ip), vehicle: Klucel (hydroxypropylcellulose) (HPC)) and 0 of 6 (dose: 12.5 mg/kg/injection, schedule: Q01DX009 (ip), vehicle: Klucel (hydroxypropylcellulose) (HPC)).

As for `CCCN(CCC)CC(C)(C)C(O)c1ccc(OC)c2ccccc12` (stereo not drawn), where the note is “dose: 100.0 mg/kg/injection, schedule: Q01DX005 (ip), vehicle: saline with Tween-80”, the survivor count is 0 of 6.

Take `CN(C)c1ccsc(=S)c1`: the survivor count reads like this: (dose: 50.0 mg/kg/injection, schedule: Q01DX005 (ip), vehicle: Klucel (hydroxypropylcellulose) (HPC)) 0 of 6; under setting [6], 3 of 6; under setting [1], 0 of 6.

The values above are taken from PubChem BioAssay AID330 (DTP/NCI, 2004).
